Our source for the binding signal values is publication PMC7819943, “Rice protein-binding microarrays: a tool to detect cis-acting elements near promoter regions in rice”.

Amino acid sequences for entries named in this document (tags omitted).
UniProt Q0JBA9, entry or part of it: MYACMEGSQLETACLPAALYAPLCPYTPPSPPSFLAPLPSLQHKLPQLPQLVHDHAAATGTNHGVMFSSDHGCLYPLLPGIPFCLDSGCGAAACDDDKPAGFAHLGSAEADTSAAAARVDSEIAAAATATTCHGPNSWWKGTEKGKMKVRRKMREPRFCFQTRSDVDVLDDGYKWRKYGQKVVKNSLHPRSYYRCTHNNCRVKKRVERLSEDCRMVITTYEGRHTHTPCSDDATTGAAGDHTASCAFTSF

The list shows a part of the results.

The assay deals with OsWRKY34 (Oryza sativa, UniProt Q0JBA9 1-250). Briefly: protein-binding microarray (RPBM); PBS, 2% BSA, 51.3 ng/ul salmon testes DNA, 50 uM zinc acetate, 200 nM TF, 25 C, 1 h; high values mean tight binding. The settings on record: protein: recombinant; tags: N-terminal polyhistidine and DsRed monomer fusion (pET32a); label: CyDye5-dUTP incorporated in the synthesized complementary strand; 3' TTTTT single-stranded linker to array surface; dsDNA, one strand shown. The gist of the method: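 Ni–NTA purification followed expression in E. coli BL21-CodonPlus of transcription factors fused N-terminally to a polyhistidine tag and DsRed. At 200 nM in PBS with 2% BSA, salmon testes DNA and 50 µM zinc acetate, the protein was incubated for 1 h at 25 °C with a custom Agilent array that had been primer-extended with Cy5-dUTP and blocked with 2% BSA. After washing, the array was read on an Axon 4000B scanner. The binding signal is per-feature fluorescence intensity in arbitrary units.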
Turning to “CTCTCCTCTCCTCGCTTCTTCGTCTCGCTTGCTCGCTCGCCGGAGTCACCTAGTGCAG”, the binding signal is 8550 fluorescence intensity (a.u.).

Consider “AGAAGGTGGGGTTAGGGTCATGATGGTATGCTGAGCAGTGCGGAGTCACCTAGTGCAG”, for which the binding signal was 8420 fluorescence intensity (a.u.).

In the case of “ACCCTAATTCCATCCACCGCTCGATCCAATCTACCCTCTCCGGAGTCACCTAGTGCAG”, the binding signal was 9640 fluorescence intensity (a.u.).

With “TACTCACATTACTCTATATAATGCTCTCTCATATTGTTTTCGGAGTCACCTAGTGCAG”, the binding signal is 13900 fluorescence intensity (a.u.).

As to “GCATTTAAAGTATTTTTATACACTCCGTCCATTTACAAATCGGAGTCACCTAGTGCAG”, the binding signal is 8120 fluorescence intensity (a.u.).

For “CCTTGTTACTTTATCACTTCAGCATGGTCATAACATCATTCGGAGTCACCTAGTGCAG”, the binding signal is 8100 fluorescence intensity (a.u.).

Regarding “GTTTGCTGTTTTTCTTGCCTTGTTCTAACAATAGCATTTCCGGAGTCACCTAGTGCAG”, the binding signal is 8740 fluorescence intensity (a.u.).

Turning to “TTTTTTACCCTTAGATCTATTCATCCAATGGCTTATATCACGGAGTCACCTAGTGCAG”, the binding signal is 9060 fluorescence intensity (a.u.).

As for “CTTCTTCTTCTTCCTGAGGTGGGTCAGGGTGGGCGTGGATCGGAGTCACCTAGTGCAG”, the binding signal is 14800 fluorescence intensity (a.u.).

“GCTCATCGTCATCACACGTCGCCGTCCCTTTCGGTTTCATCGGAGTCACCTAGTGCAG”: the binding signal was 11800 fluorescence intensity (a.u.).

As to “GGACCCAACCCTACCCTTGTCAGTTGTATTAAGCATTTTTCGGAGTCACCTAGTGCAG”, the binding signal was 11300 fluorescence intensity (a.u.).

“ACCTTATTTACACGGTTTTGTAAGTTGGGAGATACGTTATCGGAGTCACCTAGTGCAG”: the binding signal was 8500 fluorescence intensity (a.u.).

In the case of “CTCTTGTCGCCATCGCATCCCCGTCGCGTCTCCATCTTGTCGGAGTCACCTAGTGCAG”, the binding signal was 9960 fluorescence intensity (a.u.).

Turning to “TTAATTGTGCCGCTATAGATCTAGTCGTTGTTTGTGCTTTCGGAGTCACCTAGTGCAG”, the binding signal was 12500 fluorescence intensity (a.u.).

“GCACGCAGCTTTTCTTTCTTGGCCTCGCCTCGCCTCGCCTCGGAGTCACCTAGTGCAG”: the binding signal was 8900 fluorescence intensity (a.u.).

With “CTTATCATTTACATGCAGGACCTACTTCTATTTTTAATTCCGGAGTCACCTAGTGCAG”, the binding signal is 8780 fluorescence intensity (a.u.).

Consider “TTCTTTTGCATCGCCCTTGATCGTGCTCCCTTGTCAAAGTCGGAGTCACCTAGTGCAG”, for which the binding signal is 8250 fluorescence intensity (a.u.).

As to “ATGGGTGGAGGAGTGGGAGGGGATTAAATATCGGCGGAGGCGGAGTCACCTAGTGCAG”, the binding signal was 9240 fluorescence intensity (a.u.).

Turning to “GGAGCCACCGCTGCCGTCCCACTCTCCCGTTATTGCCGCCCGGAGTCACCTAGTGCAG”, the binding signal was 8230 fluorescence intensity (a.u.).

As to “CATCCAAGCTGCTCGTCGCGCTATCTATACATGACACGCCCGGAGTCACCTAGTGCAG”, the binding signal was 8910 fluorescence intensity (a.u.).

“TAATATATGATCATACTTGTTTTATATACATTGTGTCTTGCGGAGTCACCTAGTGCAG”: the binding signal is 9830 fluorescence intensity (a.u.).

As for “GCTTCCCCTGTTTCTTGTTTGTTGAGTGGATTGAATGGAGCGGAGTCACCTAGTGCAG”, the binding signal was 8430 fluorescence intensity (a.u.).

Turning to “TGACGCCGAGCAGGACGCCGGCGCAGAGCCCTCCTTTCCCCGGAGTCACCTAGTGCAG”, the binding signal is 8480 fluorescence intensity (a.u.).

In the case of “TCCACAAACCATCATAGGCGTCGCATCCACACCTGTTTCCCGGAGTCACCTAGTGCAG”, the binding signal is 9110 fluorescence intensity (a.u.).

In the case of “ATTGTAACTTCCCTTTCTGTTGCTGAAACATTTACTTAGTCGGAGTCACCTAGTGCAG”, the binding signal was 8580 fluorescence intensity (a.u.).

For “TCCGCCGCTTCATCTGAATCCCCAAGGATCTCGTCCACGCCGGAGTCACCTAGTGCAG”, the binding signal is 9640 fluorescence intensity (a.u.).

Take “TCCACGACCTCTGCCGCCCGAGCTCCATGTCTACCGCCACCGGAGTCACCTAGTGCAG”: the binding signal was 9300 fluorescence intensity (a.u.).

As to “ATTTCAGGCCCACTAGTCCGCTCTTCCTCTTCTTTTTTTTCGGAGTCACCTAGTGCAG”, the binding signal is 9840 fluorescence intensity (a.u.).

For the sequence “CTGCCTGCGCGCACCACCACCTGCTGCTCTCTCTCTCTCGCGGAGTCACCTAGTGCAG”, the binding signal is 9930 fluorescence intensity (a.u.).

“GTTCGCCACCGCCCCGTCCCGCTCCGTGCCGCCGGCTTCGCGGAGTCACCTAGTGCAG”: the binding signal is 8360 fluorescence intensity (a.u.).

For “AAATTGTATTTCTATATGGGTCCTGCTTTTTCTTTTTCTCCGGAGTCACCTAGTGCAG”, the binding signal is 10600 fluorescence intensity (a.u.).

With “GTCTTTCATTCATGGTTAGCTCTTAATTGGTCAAACTAATCGGAGTCACCTAGTGCAG”, the binding signal is 10600 fluorescence intensity (a.u.).

For “GGGAGGGGAGCTCTCGCGTCGCCTCCGTAAGGTGGGGTGTCGGAGTCACCTAGTGCAG”, the binding signal is 8700 fluorescence intensity (a.u.).

Consider “GCCTTTTTTTTTCCCACCCATTCGCTCACGCATCTCATTTCGGAGTCACCTAGTGCAG”, for which the binding signal was 8750 fluorescence intensity (a.u.).

As for “CACACTTGTTCCATTGTTGGTCTTCTCACCAATACATTTGCGGAGTCACCTAGTGCAG”, the binding signal is 8180 fluorescence intensity (a.u.).

As to “TCACCACTGCTGCTCTCGCTGCCGTCCTTGTTCTTCGCGCCGGAGTCACCTAGTGCAG”, the binding signal was 8110 fluorescence intensity (a.u.).

With “CAGCACACTCACCCCTATGAACGCACACACGCACACCCTACGGAGTCACCTAGTGCAG”, the binding signal was 9660 fluorescence intensity (a.u.).

Consider “AAGCCACCAACCAGCATATATGCCCAACGATTTCGCTATACGGAGTCACCTAGTGCAG”, for which the binding signal was 9750 fluorescence intensity (a.u.).

In the case of “GACCAATCCGCCGCCGCCACCTCGCCGCCTCCAGCCAATCCGGAGTCACCTAGTGCAG”, the binding signal is 13100 fluorescence intensity (a.u.).

In the case of “ACATTATCCTTATTGATGGTATTTGCCTCTCTTTTTTTATCGGAGTCACCTAGTGCAG”, the binding signal was 9840 fluorescence intensity (a.u.).

For “CCGCGTACCGCTTCGTTTCTTTTTTTCGTTGACCGTGTGACGGAGTCACCTAGTGCAG”, the binding signal is 13900 fluorescence intensity (a.u.).

Turning to “ATGTTTCTTACATTTTGTAACGTCATCCATGTTGCTGTGACGGAGTCACCTAGTGCAG”, the binding signal is 9480 fluorescence intensity (a.u.).
